Laboratory results reported in the supplement of paper PMC10849652.
The other results are listed elsewhere or left out.

Protein sequences, listed by entry. Tags and fused reporters are not part of them. Lines headed by an entry give the natural chain unless they say otherwise; changes in a name come on top.
UniProt P43251: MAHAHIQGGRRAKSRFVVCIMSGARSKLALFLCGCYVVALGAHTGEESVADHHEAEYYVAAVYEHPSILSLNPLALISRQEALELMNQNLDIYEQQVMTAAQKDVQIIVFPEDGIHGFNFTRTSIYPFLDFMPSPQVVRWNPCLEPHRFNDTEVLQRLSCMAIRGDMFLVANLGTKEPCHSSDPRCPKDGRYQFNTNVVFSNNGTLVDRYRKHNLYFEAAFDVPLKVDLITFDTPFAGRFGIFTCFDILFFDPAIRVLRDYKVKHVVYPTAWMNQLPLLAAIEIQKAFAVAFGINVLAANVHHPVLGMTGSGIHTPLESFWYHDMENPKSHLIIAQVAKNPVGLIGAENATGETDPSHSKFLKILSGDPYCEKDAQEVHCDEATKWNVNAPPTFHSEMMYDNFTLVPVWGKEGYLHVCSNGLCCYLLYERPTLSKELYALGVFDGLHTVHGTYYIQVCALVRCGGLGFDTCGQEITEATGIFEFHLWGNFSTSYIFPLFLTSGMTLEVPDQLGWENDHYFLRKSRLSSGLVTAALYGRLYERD
UniProt P21953: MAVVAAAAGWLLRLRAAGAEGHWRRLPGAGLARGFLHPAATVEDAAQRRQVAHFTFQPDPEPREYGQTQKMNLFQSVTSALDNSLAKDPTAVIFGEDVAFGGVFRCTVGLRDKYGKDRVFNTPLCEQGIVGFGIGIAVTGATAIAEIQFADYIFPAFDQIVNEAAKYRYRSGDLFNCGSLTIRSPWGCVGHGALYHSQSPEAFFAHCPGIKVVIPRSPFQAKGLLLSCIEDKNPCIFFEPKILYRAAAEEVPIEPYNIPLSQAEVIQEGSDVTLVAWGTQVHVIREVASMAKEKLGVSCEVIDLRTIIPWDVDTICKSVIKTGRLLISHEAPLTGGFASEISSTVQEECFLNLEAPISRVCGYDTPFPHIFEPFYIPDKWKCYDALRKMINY
UniProt Q92934: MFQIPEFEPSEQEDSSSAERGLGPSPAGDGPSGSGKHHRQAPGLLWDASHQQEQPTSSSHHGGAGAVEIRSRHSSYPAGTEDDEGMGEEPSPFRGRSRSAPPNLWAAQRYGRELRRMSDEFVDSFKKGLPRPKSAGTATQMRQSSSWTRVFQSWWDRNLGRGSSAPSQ
UniProt Q9BXH1: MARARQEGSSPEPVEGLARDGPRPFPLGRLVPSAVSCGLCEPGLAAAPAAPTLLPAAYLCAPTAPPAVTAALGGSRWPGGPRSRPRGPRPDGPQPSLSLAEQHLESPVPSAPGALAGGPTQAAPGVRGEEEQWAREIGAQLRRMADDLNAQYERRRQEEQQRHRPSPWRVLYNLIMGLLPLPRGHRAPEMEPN
UniProt P54132: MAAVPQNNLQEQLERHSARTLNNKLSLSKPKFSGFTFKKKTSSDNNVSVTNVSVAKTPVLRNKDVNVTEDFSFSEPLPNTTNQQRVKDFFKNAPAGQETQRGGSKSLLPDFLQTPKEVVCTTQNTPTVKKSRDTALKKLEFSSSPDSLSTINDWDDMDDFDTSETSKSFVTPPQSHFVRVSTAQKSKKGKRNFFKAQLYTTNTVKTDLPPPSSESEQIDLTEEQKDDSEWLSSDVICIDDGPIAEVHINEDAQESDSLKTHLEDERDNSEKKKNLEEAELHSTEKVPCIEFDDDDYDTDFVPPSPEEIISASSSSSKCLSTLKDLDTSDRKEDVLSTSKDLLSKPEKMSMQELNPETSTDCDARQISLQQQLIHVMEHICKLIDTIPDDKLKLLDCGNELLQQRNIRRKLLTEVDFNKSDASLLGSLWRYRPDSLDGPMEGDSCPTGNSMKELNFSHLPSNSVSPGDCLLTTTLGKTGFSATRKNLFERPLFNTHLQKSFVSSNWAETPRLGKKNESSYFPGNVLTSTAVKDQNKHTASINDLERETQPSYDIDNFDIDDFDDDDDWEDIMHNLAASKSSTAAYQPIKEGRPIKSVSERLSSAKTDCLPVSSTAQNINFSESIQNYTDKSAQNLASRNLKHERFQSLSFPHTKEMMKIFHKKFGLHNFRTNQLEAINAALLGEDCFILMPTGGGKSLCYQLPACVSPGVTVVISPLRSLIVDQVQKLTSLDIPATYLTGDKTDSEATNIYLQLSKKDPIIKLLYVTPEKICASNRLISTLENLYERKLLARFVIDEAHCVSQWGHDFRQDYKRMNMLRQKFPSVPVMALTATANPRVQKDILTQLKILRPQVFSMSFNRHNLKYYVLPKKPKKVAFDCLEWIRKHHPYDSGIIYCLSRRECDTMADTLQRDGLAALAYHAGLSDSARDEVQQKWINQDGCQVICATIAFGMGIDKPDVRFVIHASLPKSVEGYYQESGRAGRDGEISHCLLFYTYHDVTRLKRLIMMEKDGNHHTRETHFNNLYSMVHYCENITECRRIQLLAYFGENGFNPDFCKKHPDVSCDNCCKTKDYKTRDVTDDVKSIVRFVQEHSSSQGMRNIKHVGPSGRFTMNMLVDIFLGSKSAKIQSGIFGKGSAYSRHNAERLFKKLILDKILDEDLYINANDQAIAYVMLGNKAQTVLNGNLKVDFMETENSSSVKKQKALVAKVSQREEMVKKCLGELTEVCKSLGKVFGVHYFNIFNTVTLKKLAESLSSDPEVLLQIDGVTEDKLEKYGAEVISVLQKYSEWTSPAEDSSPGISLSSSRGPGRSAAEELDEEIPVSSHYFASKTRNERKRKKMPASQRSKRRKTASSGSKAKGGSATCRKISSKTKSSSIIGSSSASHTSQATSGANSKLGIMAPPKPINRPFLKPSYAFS
UniProt O95429: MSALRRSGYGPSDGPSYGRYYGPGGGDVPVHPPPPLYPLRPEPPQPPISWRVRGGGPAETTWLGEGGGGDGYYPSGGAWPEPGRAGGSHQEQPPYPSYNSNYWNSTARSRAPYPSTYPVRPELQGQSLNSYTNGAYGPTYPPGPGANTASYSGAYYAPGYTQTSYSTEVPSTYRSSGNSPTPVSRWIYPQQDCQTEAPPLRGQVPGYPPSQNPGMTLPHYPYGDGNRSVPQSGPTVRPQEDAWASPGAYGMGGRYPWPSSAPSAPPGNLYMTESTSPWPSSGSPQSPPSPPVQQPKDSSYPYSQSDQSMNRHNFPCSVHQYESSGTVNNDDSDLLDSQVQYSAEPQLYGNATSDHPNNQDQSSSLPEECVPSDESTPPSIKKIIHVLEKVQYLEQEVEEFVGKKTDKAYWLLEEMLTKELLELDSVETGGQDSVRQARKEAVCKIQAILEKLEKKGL
UniProt Q9NWV8, whole entry, looked up: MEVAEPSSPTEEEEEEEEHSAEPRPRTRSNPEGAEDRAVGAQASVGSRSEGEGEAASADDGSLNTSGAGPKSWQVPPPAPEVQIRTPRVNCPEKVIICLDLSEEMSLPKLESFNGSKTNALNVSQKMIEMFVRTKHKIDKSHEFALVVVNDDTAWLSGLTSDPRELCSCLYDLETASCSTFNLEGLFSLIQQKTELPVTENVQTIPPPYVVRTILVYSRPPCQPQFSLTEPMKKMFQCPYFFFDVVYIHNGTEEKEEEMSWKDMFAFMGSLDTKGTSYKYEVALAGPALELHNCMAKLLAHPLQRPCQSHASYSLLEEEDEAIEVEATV
UniProt P30043: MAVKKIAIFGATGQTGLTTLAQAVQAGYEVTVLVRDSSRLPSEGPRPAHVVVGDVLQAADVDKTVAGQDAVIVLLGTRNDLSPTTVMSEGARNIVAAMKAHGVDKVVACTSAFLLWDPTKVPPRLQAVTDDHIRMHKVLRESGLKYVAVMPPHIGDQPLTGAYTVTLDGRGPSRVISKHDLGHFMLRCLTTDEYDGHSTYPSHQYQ
UniProt Q9NPI1: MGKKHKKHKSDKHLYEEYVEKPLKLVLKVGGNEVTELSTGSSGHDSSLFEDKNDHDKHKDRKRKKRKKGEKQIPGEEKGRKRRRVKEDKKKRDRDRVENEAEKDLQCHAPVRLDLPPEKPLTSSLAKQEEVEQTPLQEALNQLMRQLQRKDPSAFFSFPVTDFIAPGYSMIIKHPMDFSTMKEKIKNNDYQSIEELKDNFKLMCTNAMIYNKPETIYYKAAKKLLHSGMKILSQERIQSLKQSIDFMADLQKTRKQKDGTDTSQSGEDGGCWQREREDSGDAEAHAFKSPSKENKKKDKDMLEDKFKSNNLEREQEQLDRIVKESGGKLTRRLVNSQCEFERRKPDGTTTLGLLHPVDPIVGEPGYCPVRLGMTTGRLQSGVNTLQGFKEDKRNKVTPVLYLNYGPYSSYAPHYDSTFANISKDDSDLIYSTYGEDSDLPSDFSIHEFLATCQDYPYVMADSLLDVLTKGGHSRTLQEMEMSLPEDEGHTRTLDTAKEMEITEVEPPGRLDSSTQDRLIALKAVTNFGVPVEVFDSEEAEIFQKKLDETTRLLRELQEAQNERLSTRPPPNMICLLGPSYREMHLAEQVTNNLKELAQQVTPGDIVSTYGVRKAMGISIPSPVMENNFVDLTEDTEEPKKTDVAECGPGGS
UniProt Q12983, whole entry, looked up: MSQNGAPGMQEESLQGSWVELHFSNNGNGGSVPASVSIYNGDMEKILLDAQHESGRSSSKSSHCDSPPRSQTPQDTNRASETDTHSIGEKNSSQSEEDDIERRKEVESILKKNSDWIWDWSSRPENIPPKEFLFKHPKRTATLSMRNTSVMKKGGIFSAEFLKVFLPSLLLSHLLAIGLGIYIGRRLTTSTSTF
UniProt Q9H0C5: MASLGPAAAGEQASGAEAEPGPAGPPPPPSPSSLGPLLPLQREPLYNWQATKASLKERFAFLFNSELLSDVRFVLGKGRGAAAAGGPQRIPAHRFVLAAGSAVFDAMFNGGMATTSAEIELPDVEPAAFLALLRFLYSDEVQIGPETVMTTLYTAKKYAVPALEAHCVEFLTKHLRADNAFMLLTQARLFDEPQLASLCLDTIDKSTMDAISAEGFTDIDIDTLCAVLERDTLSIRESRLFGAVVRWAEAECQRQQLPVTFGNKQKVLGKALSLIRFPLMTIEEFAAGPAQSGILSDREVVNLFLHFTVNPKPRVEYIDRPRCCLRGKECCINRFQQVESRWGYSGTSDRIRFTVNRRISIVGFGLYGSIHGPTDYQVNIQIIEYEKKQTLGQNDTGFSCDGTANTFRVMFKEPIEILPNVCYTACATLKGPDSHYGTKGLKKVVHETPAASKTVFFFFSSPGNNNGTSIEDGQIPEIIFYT
UniProt Q9BX63: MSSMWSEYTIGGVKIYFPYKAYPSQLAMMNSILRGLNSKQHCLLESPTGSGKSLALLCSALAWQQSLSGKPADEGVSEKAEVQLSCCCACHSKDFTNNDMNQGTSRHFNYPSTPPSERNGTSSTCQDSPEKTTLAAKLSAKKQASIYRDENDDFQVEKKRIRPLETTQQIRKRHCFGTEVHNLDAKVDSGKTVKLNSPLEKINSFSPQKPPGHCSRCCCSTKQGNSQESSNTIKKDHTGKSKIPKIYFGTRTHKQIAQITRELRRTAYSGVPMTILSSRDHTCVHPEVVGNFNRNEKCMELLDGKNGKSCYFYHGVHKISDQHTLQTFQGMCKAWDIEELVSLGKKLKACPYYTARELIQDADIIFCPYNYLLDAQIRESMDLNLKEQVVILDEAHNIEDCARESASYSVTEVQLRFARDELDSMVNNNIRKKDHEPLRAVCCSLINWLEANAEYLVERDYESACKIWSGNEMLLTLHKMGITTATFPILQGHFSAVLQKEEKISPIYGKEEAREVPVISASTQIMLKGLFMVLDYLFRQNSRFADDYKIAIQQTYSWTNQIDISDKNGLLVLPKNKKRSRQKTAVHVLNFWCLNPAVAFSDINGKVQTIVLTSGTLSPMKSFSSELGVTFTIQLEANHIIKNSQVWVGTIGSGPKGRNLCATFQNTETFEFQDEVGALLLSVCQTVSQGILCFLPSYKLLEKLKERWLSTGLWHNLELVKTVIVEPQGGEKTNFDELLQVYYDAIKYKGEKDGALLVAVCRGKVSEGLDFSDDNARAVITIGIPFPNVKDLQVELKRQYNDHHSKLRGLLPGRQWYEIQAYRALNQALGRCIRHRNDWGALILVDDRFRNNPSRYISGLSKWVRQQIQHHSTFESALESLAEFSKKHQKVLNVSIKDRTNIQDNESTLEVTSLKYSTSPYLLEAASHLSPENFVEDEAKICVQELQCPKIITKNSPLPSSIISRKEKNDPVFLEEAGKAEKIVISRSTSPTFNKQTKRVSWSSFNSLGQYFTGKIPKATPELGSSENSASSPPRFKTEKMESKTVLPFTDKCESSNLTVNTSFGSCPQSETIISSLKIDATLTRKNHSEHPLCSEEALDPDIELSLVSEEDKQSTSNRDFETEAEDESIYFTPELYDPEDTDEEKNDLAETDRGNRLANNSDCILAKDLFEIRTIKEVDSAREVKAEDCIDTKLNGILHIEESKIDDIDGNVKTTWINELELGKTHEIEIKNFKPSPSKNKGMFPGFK
UniProt Q9NP55: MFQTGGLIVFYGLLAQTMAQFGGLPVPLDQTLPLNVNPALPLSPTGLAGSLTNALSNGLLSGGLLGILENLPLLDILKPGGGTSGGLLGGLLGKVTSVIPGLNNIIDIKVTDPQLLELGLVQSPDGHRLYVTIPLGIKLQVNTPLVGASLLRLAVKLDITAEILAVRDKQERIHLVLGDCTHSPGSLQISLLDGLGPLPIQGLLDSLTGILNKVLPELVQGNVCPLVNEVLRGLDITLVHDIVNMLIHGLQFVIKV

Tests used:
Experiment in all cases: log2 fold change, soluble protein after heating vs DMSO (PISA); higher = thermal stabilisation; K562 lysate, 10 uM; active = over 0.2 and 3.5 SD of the protein, either way, in both replicates (recomputed)
erlotinib = compound: C#Cc1cccc(Nc2ncnc3cc(OCCOC)c(OCCOC)cc23)c1 [erlotinib]
Outline: (§1)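 The values are log-two fold changes in thermal stability compared with solvent controls and come from duplicates. They were obtained by TMTpro 16plex LC-MS/MS, with channel sums equalised, on the supernatant after 21,000xg for 90 min. That supernatant came from crude K562 extract at 1 mg/mL protein treated with 10 μM compound for 30 min, heated for 3 min across 48°C-58°C, pooled and brought to 0.5% NP-40 at 4°C.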

[1] = compound: C/C(=N\NC(=O)C1=CC(=CC=C1)S(=O)(=O)N2CCOCC2)/C3=C(C=CC(=C3)Cl)O
Outline: as §1

[2] = compound: C1=CC(=CC=C1C2=NC3=C(N2)C=C(C=C3)C(=O)N)OC4=CC=C(C=C4)Cl
Outline: as §1

[3] = compound: C1=CC2=C(C=CC(=C2)/C=C\3/C(=O)NC(=NCC4=CC=CS4)S3)N=C1
Outline: as §1

[4] = compound: C1=CC2=NC=CN=C2C=C1/C=C/3\C(=O)NC(=O)S3
Outline: as §1

[5] = compound: C1=CC=C(C=C1)C2=NC(=C(N2)C3=CC=NC=C3)C4=CC(=C(C=C4)Cl)O
Outline: as §1

[6] = compound: C1=CC=C2C(=C1)C3=NNC4=CC=CC(=C43)C2=O
Outline: as §1

[7] = compound: C1CCN(C1)C(=O)NC2=CC=CC(=C2)NC3=NC=C(C(=N3)NCCC4=CN=CN4)Br
Outline: as §1

[8] = compound: C1CN(CCC1(CC2=CC=C(C=C2)Cl)N)C3=NC=NC4=C3C=CN4
Outline: as §1

IRAK-1-4 Inhibitor I = compound: C1COCCN1CCN2C3=CC=CC=C3N=C2NC(=O)C4=CC(=CC=C4)[N+](=O)[O-] [IRAK-1-4 Inhibitor I]
Outline: as §1

Measured: log2 fold change

BTD isoform 3 (UniProt P43251)
inactive: erlotinib 0.021 | [1] 0.037 | [2] -0.015 | [3] -0.001 | [4] 0.01 | [5] 0.016 | [6] -0.006 | [7] 0.023 | [8] -0.023 | IRAK-1-4 Inhibitor I 0.043

BCKDHB (UniProt P21953)
inactive: erlotinib 0.013 | [1] -0.034 | [2] 0.033 | [3] -0.089 | [4] 0.049 | [5] -0.098 | [6] -0.117 | [7] 0.065 | [8] -0.012 | IRAK-1-4 Inhibitor I 0.134

BAD (UniProt Q92934)
inactive: erlotinib 0.04 | [1] -0.084 | [2] -0.022 | [3] 0.089 | [4] -0.068 | [5] -0.044 | [6] 0.013 | [7] 0.03 | [8] -0.057 | IRAK-1-4 Inhibitor I 0.049

BBC3 (UniProt Q9BXH1)
inactive: erlotinib -0.068 | [1] 0.041 | [2] 0.075 | [3] 0.07 | [4] -0.01 | [5] -0.048 | [6] -0.096 | [7] -0.04 | [8] 0.058 | IRAK-1-4 Inhibitor I -0.16

BLM (UniProt P54132)
inactive: erlotinib -0.034 | [1] 0.061 | [2] -0.042 | [3] 0.011 | [4] 0.032 | [5] 0.079 | [6] -0.059 | [7] -0.026 | [8] -0.01 | IRAK-1-4 Inhibitor I -0.02

BAG4 (UniProt O95429)
inactive: erlotinib -0.036 | [1] 0.046 | [2] 0.075 | [3] -0.017 | [4] 0.004 | [5] -0.038 | [6] 0.021 | [7] 0.047 | [8] 0.017 | IRAK-1-4 Inhibitor I 0

BECN1 (UniProt Q14457)
inactive: erlotinib -0.013 | [1] -0.016 | [2] -0.077 | [3] 0.03 | [4] 0.047 | [5] -0.064 | [6] 0.045 | [7] -0.01 | [8] -0.023 | IRAK-1-4 Inhibitor I 0.024

BTF3 (UniProt P20290)
inactive: erlotinib -0.054 | [1] -0.015 | [2] 0.013 | [3] -0.006 | [4] -0.015 | [5] -0.014 | [6] 0.04 | [7] 0.004 | [8] -0.011 | IRAK-1-4 Inhibitor I -0.013

BABAM1 (UniProt Q9NWV8)
inactive: erlotinib 0.041 | [1] -0.022 | [2] 0.049 | [3] 0.021 | [4] -0.029 | [5] 0 | [6] 0.021 | [7] -0.015 | [8] -0.015 | IRAK-1-4 Inhibitor I -0.04

BLVRB (UniProt P30043)
inactive: erlotinib 0.019 | [1] 0.184 | [2] -0.006 | [3] 0.004 | [4] 0.036 | [5] -0.03 | [6] 0.012 | [7] -0.021 | [8] 0.038 | IRAK-1-4 Inhibitor I 0

BPNT1 (UniProt O95861)
inactive: erlotinib 0.004 | [1] 0.026 | [2] -0.018 | [3] 0.003 | [4] -0.001 | [5] 0.012 | [6] 0.024 | [7] 0.016 | [8] 0.036 | IRAK-1-4 Inhibitor I 0.017

B4GALT4 (UniProt O60513)
inactive: erlotinib -0.081 | [2] -0.099

BLOC1S2 (UniProt Q6QNY1)
inactive: erlotinib -0.076 | [1] -0.176 | [2] 0.022 | [3] 0.011 | [4] -0.077 | [6] -0.026 | [7] 0.023 | [8] 0.123

BORCS6 (UniProt Q96GS4)
inactive: erlotinib -0.001 | [1] -0.027 | [2] 0.029 | [3] -0.061 | [4] -0.005 | [5] 0.036 | [6] 0.022 | [7] -0.01 | [8] -0.003 | IRAK-1-4 Inhibitor I 0.001

BRD7 isoform 2 (UniProt Q9NPI1)
inactive: erlotinib -0.076 | [2] -0.312 | [4] -0.07 | [5] -0.023 | IRAK-1-4 Inhibitor I 0.006

BAHCC1 (UniProt Q9P281)
inactive: erlotinib -0.047 | [1] 0.026 | [2] 0.076 | [3] -0.126 | [6] -0.009 | [7] -0.101 | [8] -0.11

BAK1 (UniProt Q16611)
inactive: erlotinib 0.145 | [1] -0.089 | [2] -0.178 | [3] -0.053 | [5] 0.152 | [6] -0.116 | [7] -0.119 | [8] 0.04 | IRAK-1-4 Inhibitor I 0.278

Taken from above (two entries):
BORCS6 (UniProt Q96GS4)
inactive: erlotinib -0.001 | [1] -0.027 | [2] 0.029 | [3] -0.061 | [4] -0.005 | [5] 0.036 | [6] 0.022 | [7] -0.01 | [8] -0.003 | IRAK-1-4 Inhibitor I 0.001

BRD7 isoform 2 (UniProt Q9NPI1)
inactive: erlotinib -0.076 | [2] -0.312 | [4] -0.07 | [5] -0.023 | IRAK-1-4 Inhibitor I 0.006

The listing continues:

BCL9 (UniProt O00512)
inactive: erlotinib -0.131 | [1] 0.177 | [2] -0.01 | [3] -0.106 | [4] 0.125 | [5] -0.096 | [6] -0.114 | IRAK-1-4 Inhibitor I 0.27

BAP18 isoform 3 (UniProt Q8IXM2)
inactive: erlotinib -0.266 | [1] -0.082 | [2] -0.026 | [3] 0.06 | [6] 0.045 | [7] -0.019 | [8] 0.132

BNIP3 (UniProt Q12983)
inactive: erlotinib -0.008 | [2] 0.036 | [4] -0.013 | [5] 0.028 | [7] 0.031 | [8] 0.02 | IRAK-1-4 Inhibitor I 0.057

BTBD1 (UniProt Q9H0C5)
inactive: erlotinib 0.05 | [1] -0.017 | [2] 0.009 | [3] 0.032 | [4] 0.123 | [6] -0.148 | [7] 0.163 | [8] 0.14

BRD3 (UniProt Q15059)
inactive: erlotinib -0.005 | [1] 0.084 | [2] -0.065 | [3] 0.004 | [4] -0.033 | [6] -0.013 | [7] -0.001 | [8] 0.036

BRIP1 (UniProt Q9BX63)
inactive: erlotinib 0.038 | [1] -0.257 | [2] 0.067 | [3] 0.131 | [5] 0.021 | [6] 0.139 | [7] 0.112 | [8] -0.042 | IRAK-1-4 Inhibitor I 0.169

BRMS1 (UniProt Q9HCU9)
inactive: erlotinib -0.014 | [1] -0.006 | [2] 0.037 | [3] 0.028 | [5] 0.061 | [6] 0.133 | [7] 0.041 | [8] 0.046 | IRAK-1-4 Inhibitor I 0.099

BAG2 (UniProt O95816)
inactive: erlotinib -0.066 | [1] -0.046 | [2] 0.008 | [3] -0.002 | [4] -0.012 | [5] -0.003 | [6] -0.034 | [7] 0.013 | [8] -0.007 | IRAK-1-4 Inhibitor I -0.005

BCL7C (UniProt Q8WUZ0)
inactive: erlotinib 0.073 | [2] 0.006 | [4] 0.02 | [5] -0.155 | [7] 0.048 | [8] -0.046 | IRAK-1-4 Inhibitor I 0.061

BEND3 (UniProt Q5T5X7)
inactive: erlotinib 0.061 | [1] -0.19 | [2] -0.148 | [3] 0.095 | [5] 0.126 | [6] -0.203 | [7] -0.011 | [8] 0.026 | IRAK-1-4 Inhibitor I 0.027

BPIFA1 (UniProt Q9NP55)
inactive: erlotinib 0.051 | [1] -0.653 | [2] -0.291 | [3] -0.285 | [5] -0.048 | [6] -0.172 | [7] 0.072 | [8] 0.41 | IRAK-1-4 Inhibitor I -0.198

BIRC6, A0A3B3IUB9
inactive: erlotinib 0.024 | [1] 0.069 | [2] -0.052 | [3] 0.002 | [5] -0.131 | [6] 0.051 | [7] -0.058 | [8] 0.04 | IRAK-1-4 Inhibitor I 0.13

BIN3 (UniProt Q9NQY0)
inactive: erlotinib -0.188 | [2] 0.063 | [4] -0.04 | [5] -0.022 | IRAK-1-4 Inhibitor I -0.019

BCORL1 isoform 3 (UniProt Q5H9F3)
inactive: erlotinib 0.002 | [1] -0.015 | [2] 0.15 | [3] -0.117 | [5] 0.004 | [6] -0.115 | [7] -0.114 | [8] -0.005
